Experimental data from publication PMC4316792, “The dehydrogenase region of the NADPH oxidase component Nox2 acts as a protein disulfide isomerase (PDI) resembling PDIA3 with a role in the binding of the activator protein p67^phox” (Frontiers in Chemistry, 2015).
No constants are given. Whether binding was seen depends on the method and setting. Each block holds one substance with its values, some of them ahead of it.

Columns and labels:
[1] = molecular target: p67^phox(1–212) in which cysteines 40, 45, 121, and 165 were mutated to serine (UniProt P19878); assay: SEC; gel filtration; native molecular mass of p67^phox(1–212) wild type and mutant; both purified
p67^phox(1–212) [2] = molecular target: T1, p67^phox(1–212) (UniProt P19878 1-212); assay: as above
T1 construct: contains four cysteines (40, 45, 121, 165); source: E. coli, purified (Nickel Sepharose); not shown: 6His, N-terminal, kept
T1 sequence (looked up): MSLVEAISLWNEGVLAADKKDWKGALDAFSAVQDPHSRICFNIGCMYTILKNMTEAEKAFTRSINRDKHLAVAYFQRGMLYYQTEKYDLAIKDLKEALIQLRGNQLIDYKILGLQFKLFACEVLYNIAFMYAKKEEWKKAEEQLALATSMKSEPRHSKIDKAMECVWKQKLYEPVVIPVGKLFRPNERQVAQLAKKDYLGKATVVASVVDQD

p67^phox(1–526) = molecular target: T2, p67^phox(1–526) (UniProt P19878 1-526); assay: ELISA; protein—protein binding assay: p67^phox (0.5 μM in PBS) attached to 96-well plates 16–18 h at 4°C; NusA-Nox2 or NusA 0.5 μM in PBS with 0.1% Tween 20 and 1% casein, 1 h at room temperature; detected by anti-NusA antibody and peroxidase-conjugated anti-mouse IgG, mAbs at 650 nm per min; both …
T2 construct: construct as in Mizrahi et al., 2010; also called full-length p67^phox; 6His-p67^phox; source: E. coli, purified (Nickel Sepharose); not shown: 6His, N-terminal, kept
T2 sequence (looked up): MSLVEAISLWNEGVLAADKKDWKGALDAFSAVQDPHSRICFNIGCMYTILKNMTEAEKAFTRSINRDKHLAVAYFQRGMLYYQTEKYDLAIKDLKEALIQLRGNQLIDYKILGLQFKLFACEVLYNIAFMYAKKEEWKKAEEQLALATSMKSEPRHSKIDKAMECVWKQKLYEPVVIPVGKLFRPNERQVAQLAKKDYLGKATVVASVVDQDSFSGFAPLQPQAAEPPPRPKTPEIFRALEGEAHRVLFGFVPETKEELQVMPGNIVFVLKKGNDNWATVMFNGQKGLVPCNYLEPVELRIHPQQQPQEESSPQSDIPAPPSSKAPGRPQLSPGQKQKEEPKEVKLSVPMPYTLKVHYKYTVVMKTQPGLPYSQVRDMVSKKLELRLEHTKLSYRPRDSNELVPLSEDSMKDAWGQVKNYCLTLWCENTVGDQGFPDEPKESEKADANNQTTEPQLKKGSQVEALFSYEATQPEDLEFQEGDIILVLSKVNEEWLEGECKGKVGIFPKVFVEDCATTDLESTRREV

p67^phox(1–212) [3] = molecular target: T1, p67^phox(1–212); assay: as above

binding [1]: no binding
Substance: p67^phox(1–212) in which cysteines 40, 45, 121, and 165 were mutated to serine (from UniProt P19878 1-212) (domain or fragment)

binding (p67^phox(1–212) [2]): no binding
Substance: p67^phox(1–212) (from UniProt P19878 1-212) (domain or fragment)

binding (p67^phox(1–526)): no binding (tested: 0.5 μM)
binding (p67^phox(1–212) [3]): no binding (tested: 0.5 μM)
Substance: NusA (from UniProt P0AFF6 1-495)
